Data from article PMC12126226.

Chains of the proteins cited; added tags and fusions are not shown. Residues count along the entry.
UniProt P49773: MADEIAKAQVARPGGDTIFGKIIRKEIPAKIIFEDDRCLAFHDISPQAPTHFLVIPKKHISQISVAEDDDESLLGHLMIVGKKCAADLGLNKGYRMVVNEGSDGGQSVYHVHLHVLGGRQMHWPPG
UniProt P52948, residues 1-880: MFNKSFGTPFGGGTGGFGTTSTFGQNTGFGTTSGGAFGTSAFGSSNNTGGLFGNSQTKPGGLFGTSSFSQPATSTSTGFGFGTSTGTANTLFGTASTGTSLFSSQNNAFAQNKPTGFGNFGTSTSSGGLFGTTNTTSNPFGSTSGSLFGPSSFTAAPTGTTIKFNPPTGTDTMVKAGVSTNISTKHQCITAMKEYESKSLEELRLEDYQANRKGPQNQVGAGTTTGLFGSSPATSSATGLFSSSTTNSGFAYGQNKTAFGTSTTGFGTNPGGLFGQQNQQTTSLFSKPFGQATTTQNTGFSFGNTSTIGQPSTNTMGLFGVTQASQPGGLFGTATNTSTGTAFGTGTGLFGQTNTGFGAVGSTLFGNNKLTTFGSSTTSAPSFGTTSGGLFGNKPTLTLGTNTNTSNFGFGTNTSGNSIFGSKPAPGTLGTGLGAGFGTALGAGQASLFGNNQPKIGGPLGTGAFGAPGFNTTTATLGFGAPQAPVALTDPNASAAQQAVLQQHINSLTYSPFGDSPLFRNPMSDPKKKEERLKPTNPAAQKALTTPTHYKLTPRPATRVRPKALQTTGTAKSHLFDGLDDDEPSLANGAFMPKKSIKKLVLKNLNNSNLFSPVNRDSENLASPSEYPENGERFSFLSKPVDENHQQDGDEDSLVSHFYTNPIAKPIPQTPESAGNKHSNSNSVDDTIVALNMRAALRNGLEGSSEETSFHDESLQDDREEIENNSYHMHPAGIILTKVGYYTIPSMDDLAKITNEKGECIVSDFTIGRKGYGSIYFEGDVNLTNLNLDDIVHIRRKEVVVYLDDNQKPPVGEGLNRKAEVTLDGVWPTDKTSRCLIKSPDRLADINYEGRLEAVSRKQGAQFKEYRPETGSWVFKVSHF

Target: HINT1 immunoprecipitated for mass spectrometry (cells not stated) (UniProt P49773)
Experiment: affinity purification with mass spectrometry; interacting proteins of HINT1 pulled down by Co-IP using the antibody of HINT1 and identified by MS; cells not given

binding: binds
Substance: NUP98 identified by mass spectrometry in the HINT1 immunoprecipitate (cells not stated) (from UniProt P52948 1-880)

No constants are given. Whether binding was seen depends on the method and setting. In cells and extracts the contact can be indirect. A yes stands for co-enrichment or nearness to the bait. Other partners may have been found.
